At least one structure is not confirmed: it was looked up by name or label, or the drawing left a doubt.
System: OCILy10
Test: Induction of apoptosis (caspase activation, Annexin-V flow cytometry, sub-G0 fraction)
Type: cell-based
Conditions: increase in sub-G0 fraction

C=CC(=O)N1CCC[C@@H](n2nc(-c3ccc(Oc4ccccc4)cc3)c3c(N)ncnc32)C1 [Compound 1, 1-((R)-3-(4-amino-3-(4-phenoxyphenyl)-1H-pyrazolo[3,4-d]pyrimidin-1-yl)piperidin-1-yl)prop-2-en-1-one]
induction of apoptosis: induction of apoptosis

Reference: US20220339157A1, “Formulations/Compositions Comprising a BTK Inhibitor” (Janssen Pharmaceutica NV, priority 2016, published 2022)
